Measured values reported in the supplement of paper PMC5949888.
Most values lie at the floor of the assay. Slopes are relative: functional sequences can read slightly below zero.

Each substance was assayed on Saccharomyces cerevisiae PS128 hsf1 delta, HSF1(1-493) fusion (assay: growth estimate (transactivation domain function in HSF1 fusion, heat-shock survival) (a.u. (slope of normalised read count over time)); higher = stronger growth at 37°C, i.e. more transactivation activity). Details: library: random library.
With MALKVEIP the growth estimate was -0.246.
MAMRSGPIS gave a growth estimate of under -0.25.
MARGS was tested, and the growth estimate was under -0.25.
For MAVVTLGRHLNLRLHQRG, the growth estimate was under -0.25.
In the case of MCCVIDSNDALEDSSSAYFH, the growth estimate is reported as under -0.25.
MCIFINESGSSTDQTQFYRG gave a growth estimate of under -0.25.
In the case of MCKYTSLHRALAVTGMVRKL, the growth estimate is reported as under -0.25.
Substance MCLII has a growth estimate of under -0.25.
With MCT the growth estimate was under -0.25.
MDALVELGFGHVTVRQVRLQ was tested, and the growth estimate was under -0.25.
MDAPVSFETGVMKIVRTAVR was tested, and the growth estimate was under -0.25.
Work on MDDEYRGLQILLSCGP yielded a growth estimate of under -0.25.
MDG was tested, and the growth estimate was under -0.25.
For MDK, the growth estimate was under -0.25.
With MDMYQEPRRLPWTARRRECA the growth estimate was under -0.25.
Work on MDSIEGLQRCFE yielded a growth estimate of under -0.25.
MDSYR was tested, and the growth estimate was under -0.25.
MDTSLTRQGSVRALTANLAR showed a growth estimate of under -0.25.
MDTVWVGTPGLGCTR was tested, and the growth estimate was under -0.25.
In the case of MDVPEARLHACVYRSIVSTL, the growth estimate is reported as under -0.25.
Work on MEGAVHA yielded a growth estimate of under -0.25.
MEGYGCKRAM gave a growth estimate of -0.217.
MEQPTNVIWKRAGLGLLHAI was tested, and the growth estimate was under -0.25.
MESKSRVRW showed a growth estimate of under -0.25.
In the case of METRMVGTHALAMIGNNVHL, the growth estimate is reported as under -0.25.
Work on MEVLDIKLCRGIIGTQRSTR yielded a growth estimate of -0.246.
Substance MEVRVKHVVTNIGCN has a growth estimate of under -0.25.
Work on MFAQNSAFHVLSFVSGSGIS yielded a growth estimate of under -0.25.
For MFCLGSIA, the growth estimate was under -0.25.
Work on MFL yielded a growth estimate of under -0.25.
With MFLCDPGPVSAAHREDL the growth estimate was under -0.25.
Substance MFR has a growth estimate of under -0.25.
For MFRTVGCTQSS, the growth estimate was under -0.25.
MFSLSVNSIQCPPYRTPSLA showed a growth estimate of under -0.25.
For MFVHRPSEKRQVRLILMLNG, the growth estimate was under -0.25.
Work on MFYVAPSLLVARSRQSKACD yielded a growth estimate of under -0.25.
Substance MGFCPTPPYRREAICFTTER has a growth estimate of under -0.25.
Work on MGGLGGSTSIPPVIHGRA yielded a growth estimate of under -0.25.
In the case of MGGSLFFLRCFMVFDPSEVG, the growth estimate is reported as under -0.25.
MGHGWPGELRLGGLTSAI showed a growth estimate of under -0.25.
For MGIFTFLYSEEPRT, the growth estimate was -0.245.
MGIGTSVDPIAKFLVIYTRG was tested, and the growth estimate was under -0.25.
For MGINKPVAVGLATQWARAGR, the growth estimate was under -0.25.
MGLAWCKC was tested, and the growth estimate was under -0.25.
In the case of MGLFSFAPV, the growth estimate is reported as under -0.25.
In the case of MGLSSFNDRKSCDVTLRSSS, the growth estimate is reported as under -0.25.
For MGPLRQGHRSSYP, the growth estimate was under -0.25.
MGRDELRRSTGMVPIVDYYG was tested, and the growth estimate was under -0.25.
MGRRQLIVIGFTPQGM gave a growth estimate of under -0.25.
Substance MGSVSVRRGYSRLFASGT has a growth estimate of -0.243.
Work on MGVTYLEGLEGLIDDRY yielded a growth estimate of 0.117.
In the case of MGWIPAFMGPHNKRGSLAKL, the growth estimate is reported as 0.161.
In the case of MGYLL, the growth estimate is reported as under -0.25.
MGYVKQTETGKASLILVMAD gave a growth estimate of -0.231.
MHCGDTQPLGLATK was tested, and the growth estimate was under -0.25.
MHKIA showed a growth estimate of under -0.25.
MHLAAQRCQWPKVGSSVSDE was tested, and the growth estimate was under -0.25.
For MHLGVPFWQWVYGLCSH, the growth estimate was under -0.25.
Work on MHVARALLLLEQEKGRSTLL yielded a growth estimate of under -0.25.
Work on MIHYSA yielded a growth estimate of under -0.25.
MIRVRDACCL was tested, and the growth estimate was under -0.25.
MIVERPEPGSA was tested, and the growth estimate was under -0.25.
In the case of MIVLPWFITQASPTSQR, the growth estimate is reported as under -0.25.
MIY was tested, and the growth estimate was under -0.25.
MKLQRGDVESW gave a growth estimate of under -0.25.
In the case of MLADGLGRRGLQLNTTVGHG, the growth estimate is reported as under -0.25.
Substance MLAIVWTLYKRAAKPEHLRA has a growth estimate of -0.221.
MLALTSGLRILTA gave a growth estimate of under -0.25.
With MLARGSIY the growth estimate was under -0.25.
MLATGAMVYTRIQ gave a growth estimate of under -0.25.
Work on MLCIRVDVSEHTLTLP yielded a growth estimate of under -0.25.
MLCSCRGCKDQCVADVTSSE gave a growth estimate of under -0.25.
With MLE the growth estimate was under -0.25.
Work on MLHDSEICGHGAPNRDSCFF yielded a growth estimate of under -0.25.
MLIAEASTTGCGRHTCNSAQ showed a growth estimate of under -0.25.
With MLIYNV the growth estimate was under -0.25.
MLLLAGQYVEVIITQRWDIQ was tested, and the growth estimate was under -0.25.
MLLLAW gave a growth estimate of under -0.25.
Work on MLNAEQASGARVCVFTI yielded a growth estimate of under -0.25.
With MLRGIHKKLFSV the growth estimate was under -0.25.
In the case of MLSILNGSNVSKQDTTSWVG, the growth estimate is reported as under -0.25.
